Some results were stated once for a whole list of compounds, not compound by compound.
The substances below were run on amyloid fibrils formed by wt and ACE chains (assay: Peptide arrays probed with amyloid fibrils and monomers, anti-6XHis detection). Details: wt-F and ACE-F versus ACE-M, 2.5 µM.
Assay type: binding, Atlantic cod
For “13: 12-mer overlapping synthetic peptide of the Gad m 1 sequence, SEQ ID NO: 13 (FDHKAFFTKVGL) [compound 13]”, the “binding of amyloid fibrils compared to the monomers” value (from here on “binding … compared to the monomers”) was “differentially bound”.
“12: 12-mer overlapping synthetic peptide of the Gad m 1 sequence, SEQ ID NO: 12 (GSFDHKAFFTKV) [compound 12]” was tested, and the “binding … compared to the monomers” value was “differentially bound”.
“15: 12-mer overlapping synthetic peptide of the Gad m 1 sequence, SEQ ID NO: 15 (AFFTKVGLAAKS) [compound 15]” was tested, and the “binding … compared to the monomers” value was “differentially bound”.
“14: 12-mer overlapping synthetic peptide of the Gad m 1 sequence, SEQ ID NO: 14 (HKAFFTKVGLAA) [compound 14]” was tested, and the “binding … compared to the monomers” value was “differentially bound”.

— patent publication EP3290438A1, “FOOD ALLERGEN EXTRACTS AND METHODS OF PRODUCING AND USING THE SAME” (CONSEJO SUPERIOR DE INVESTIGACIONES CIENTIFICAS, priority 2016, dated 2018)
